# These are yes or no findings as the source states them, for the method shown. Binding seen in cells or lysates may run through a third protein. Some entries that bind do so weakly or less than the wild type. Tags and fused reporters may be left off the sequences shown.
# T1: GFP-Lac1 (fission yeast ceramide synthase subunit Lac1) (Schizosaccharomyces pombe) (UniProt O59735)
# T1 sequence: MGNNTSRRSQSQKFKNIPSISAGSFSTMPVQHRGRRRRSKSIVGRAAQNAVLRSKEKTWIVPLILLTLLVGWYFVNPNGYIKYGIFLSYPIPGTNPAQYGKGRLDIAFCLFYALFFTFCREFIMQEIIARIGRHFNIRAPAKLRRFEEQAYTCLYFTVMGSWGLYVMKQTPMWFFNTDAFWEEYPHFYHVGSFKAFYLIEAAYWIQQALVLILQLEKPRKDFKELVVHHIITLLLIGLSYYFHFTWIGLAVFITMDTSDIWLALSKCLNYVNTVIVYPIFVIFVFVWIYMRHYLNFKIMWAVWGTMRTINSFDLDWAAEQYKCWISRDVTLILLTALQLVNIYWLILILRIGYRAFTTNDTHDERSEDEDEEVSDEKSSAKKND
# Biological target: T1, GFP-Lac1 (fission yeast ceramide synthase subunit Lac1) (Schizosaccharomyces pombe)
# Test: co-IP; native co-immunoprecipitation on ER-enriched fractions solubilised with 1% digitonin in TNE buffer (50 mM Tris-HCl pH 7.5, 500 mM NaCl, 5 mM EDTA); GFP-Lac1 precipitated with GFP-Trap_A, 4 °C, 3 h; washes with TNE and 0.2% digitonin; Lag1-3xHA detected by anti-HA blot; single-tagged strains as controls
binder,measurement,value
"Lag1-3xHA (fission yeast ceramide synthase subunit Lag1) (protein, UniProt P78970 1-390) MSNRKADEKHHMSSSSLTNDRSYIRNLSNRKTSISRKVPITRTLEDPSNFVAKDGTKLVQAPLFLLVWQKEICLSIIAICFACLLSPSLRPYAEPFIFLSYKQPDGSYGKGPKDACFPIFWVIVFTAFRVIVMDYVFRPFVLNWGVRNRKVIIRFCEQGYSFFYYLCFWFLGLYIYRSSNYWSNEEKLFEDYPQYYMSPLFKAYYLIQLGFWLQQILVLHLEQRRADHWQMFAHHIVTCALIILSYGFNFLRVGNAILYIFDLSDYILSGGKMLKYLGFGKICDYLFGIFVASWVYSRHYLFSKILRVVVTNAPEIIGGFHLDVPNGYIFNKPIYIAFIILLFTLQLLIYIWFGMIVKVAYRVFSGEEATDSRSDDEGEDEEASSTNEDK",binding,binds
